Data on 19 molecules can be found in PubChem BioAssay AID2685 (National Center for Advancing Translational Sciences (NCATS), 2010).

The other results are listed elsewhere or left out. These are further read-outs of the screen, such as a control signal, another cell line or another target. No call is given for them. Most of these compounds were active or inconclusive in the main read-out, so they are no random draw. Words in brackets tell the shape of the fitted curve; partial curves, single points and poor fits give uncertain potencies.

A short description of this test: qHTS Assay for Lipid Storage Modulators in Drosophila S3 Cells.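 As to cell number change: cells counted by Cell Tracker Red CMTPX staining in the red channel.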 The note with it: BODIPY lipid droplet fluorescence, 18-24 h; for cell number change: measured here: cell count max response, cells fed with added oleic acid. An outline of the steps:
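Drosophila S3 cells loaded with oleic acid (400 uM, as added) and compounds at several concentrations; lipid droplets imaged by 488-nm laser-scanning cytometry, 500–530 nm intensity and object ratio to cell channel. Percent activity normalized to 20 uM Triacsin C.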
(qHTS replaces the single test concentration by a dilution series.)

[1] abbreviates: measured here: lipid fluorescence (Fed channel) AC50, cells fed with added oleic acid.
Setting [2] is: measured here: cell number channel AC50, cells fed with added oleic acid.

As for `O=C(NCCO)/C(=C/c1cccc([N+](=O)[O-])c1)NC(=O)c1ccco1`, the cell number change was -7.62%.

In the case of `Cc1ccc(C(=O)CN(CCC(=O)O)C(=O)c2ccncc2)cc1`, the cell number change came to 10.1%.

As a reminder, the AC50 is the concentration giving half of the maximal activity seen. A higher AC50 goes with weaker potency. `O=C(OCC(=O)N1CCOCC1)c1ccccc1O`: the cell number change was 13.1%. Under setting [1], the AC50 was 29100 nM [rising, single point].

Take `O=C(CCOc1ccccc1F)N1CCN(c2ccccc2O)CC1`: the cell number change is -20.4%. Also, the AC50 under setting [1] is 130 nM [falling, full curve, poor fit].

Regarding `O=C(Nc1ccc(F)cc1)Nc1ccc2ccccc2n1`, the cell number change came out at 41.8%. Moreover, the AC50 under setting [2] was 16400 nM [rising, partial curve, poor fit].

`O=C(OCCNC(=O)c1ccc2ccccc2n1)c1cccnc1`: under setting [2], the concentration at half-maximal activity (AC50) is 1300 nM [rising, partial curve].

Turning to `O=S(=O)(c1ccc2ccccc2c1)N1CCC(c2nc(-c3ccncc3)no2)CC1`, the cell number change was -31.7%. The AC50 under setting [2] is 10300 nM [falling, partial curve, poor fit]. The AC50 under setting [1] is 14600 nM [falling, partial curve, poor fit].

For the molecule `NCc1ccc(S(N)(=O)=O)cc1`, the cell number change was -5.57%. Besides, the AC50 under setting [1] is 820 nM [falling, full curve, poor fit].

Regarding `CCn1c(O)c(N=NC(=O)CNC(=O)/C=C/c2ccccc2)c2ccccc21`, the cell number change is -25.4%. The AC50 under setting [2] is 1460 nM [falling, full curve, poor fit]. For the same molecule, the half-maximal activity concentration (AC50) under setting [1] is 2590 nM [falling, full curve, poor fit].

`CN(C(=O)NC1CCCCC1)c1ccccc1`: the cell number change was -47.4%. For the same molecule, under setting [2], the AC50 was 29100 nM [falling, single point].

`COc1ccc(S(=O)(=O)NCc2ccncc2)cc1NC(=O)c1ccccc1`: the cell number change is -27.9%. Under setting [2], the AC50 is 2060 nM [falling, full curve, poor fit].

Regarding `CC(=O)Nc1ccc(N/C=C/C(=O)c2ccccc2)cc1`, the cell number change is 3.05%.

For the molecule `O=C(C1=C[C@@H](c2csc3ccccc23)C[C@@H](OCc2ccc(CO)cc2)O1)N1CCN(Cc2ccc3c(c2)OCO3)CC1`, the cell number change was -27.6%. Further, under setting [1], the AC50 was 16400 nM [falling, partial curve].

Take `CSc1c2c(nc3ncnn13)CCC2`: the AC50 under setting [2] was 5.17 nM [falling, full curve, poor fit].

In the case of `Cc1cc(S(=O)(=O)N2CCN(c3ccccn3)CC2)ccc1F`, the cell number change is -9.82%.

As for `COc1ccc(C(=O)NCc2ccc(C(=O)NCC(OC)OC)cc2)cc1OC`, the concentration at half-maximal activity (AC50) under setting [1] was 580 nM [rising, full curve].

Regarding `COc1ccc(C=C2c3ccccc3C(=O)c3ccccc32)c(OC)c1`, the cell number change is -17.8%.

Consider `CCCCC(=O)Nc1cccc(C(C)O)c1` (configuration not stated), for which the cell number change was -16.8%. The AC50 under setting [1] is 58 nM [falling, full curve, poor fit].

As to `O=C(c1ccc2c(=O)n(Cc3ccc(Cl)cc3)c(=S)[nH]c2c1)N1CCCC1`, the cell number change stood at 13.7%. Under setting [1], the AC50 was 580 nM [rising, single point].
